# These are yes or no findings as the source states them, for the method shown. For part of these data: Binding calls can cover weak binding; strength is not graded here. For part of these data: Where a sequence is shown, tags or fusion partners need not be part of it.
# Tests used:
# Experiment in all cases: two-hybrid
# [1] = molecular target: T1, MamF (BACTH fusion) (Magnetospirillum gryphiswaldense MSR-1) (UniProt Q6NE74)
# T1 sequence: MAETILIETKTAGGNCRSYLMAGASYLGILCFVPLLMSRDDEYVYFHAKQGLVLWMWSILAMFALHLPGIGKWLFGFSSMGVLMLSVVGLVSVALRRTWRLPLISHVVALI
# [2] = molecular target: T2, MmsF (BACTH fusion) (Magnetospirillum gryphiswaldense MSR-1) (UniProt A4U547)
# T2 sequence: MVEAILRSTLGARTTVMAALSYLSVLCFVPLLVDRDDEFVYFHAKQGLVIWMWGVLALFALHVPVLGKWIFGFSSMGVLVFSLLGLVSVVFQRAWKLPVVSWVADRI
# [3] = molecular target: MmxF (BACTH fusion) (Magnetospirillum gryphiswaldense MSR-1) (UniProt V6F1W7)
substance,measurement,setting,value
MamJ C-terminal domain (BACTH fusion) (from UniProt V6F519) (domain or fragment),binding,[1],no binding
same,binding,[2],binds
same,binding,[3],binds
